Values from PubChem BioAssay AID504774 (Drosophila RNAi Screening Center, 2011).
The deposit covers about 23,000 reagents; below is a random part of those that have a named target and a result. 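Values are quantile-normalised luminescence on an arbitrary scale; higher means more cells surviving MMS.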 A plus sign joins genes that one reagent is predicted to hit. Further read-outs or replicates are left out here.

Test: 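Fly genes whose loss alters survival after alkylation damage to DNA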 (primary screen)
Cell system: Drosophila Kc167 cells
Knock-down reagent: long dsRNA against Drosophila genes, about 0.25 µg dsRNA per well
Time to read-out: about 6 days: 3 days knock-down, then 3 days with or without MMS
Challenge: methyl methanesulphonate 0.004% (w/v) for 3 days after knock-down
Measurement: 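ATP-dependent luminescence as a measure of live cells in MMS-exposed wells, quantile normalised within each plate, with replicate values also given as a mean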
Reading the numbers: mean viability with MMS and viability with MMS: higher = more surviving cells after MMS

predicted target	dsRNA	mean viability with MMS	viability with MMS, replicate 1
CG31493	DRSC12583	3.72e6	4.21e6
p24-1 (p24-related-1)	DRSC19827	3.50e6	4.03e6
Pif1A (PFTAIRE-interacting factor 1A)	DRSC12708	3.35e6	3.77e6
Pif1A (PFTAIRE-interacting factor 1A)	DRSC14383	3.50e6	4.08e6
Mst57Db (Male-specific RNA 57Db)	DRSC21551	3.54e6	4.11e6
CG14505	DRSC06476	3.50e6	3.87e6
Ddrgk1 (DDRGK domain containing 1)	DRSC15897	3.68e6	4.25e6
CG43861	DRSC02308	3.43e6	3.86e6
Polr2C (RNA polymerase II subunit C)	DRSC03415	3.01e6	3.50e6
omd (oocyte maintenance defects)	DRSC16507	3.35e6	3.77e6
Cpr100A (Cuticular protein 100A)	DRSC14465	3.61e6	4.08e6
CG3594	DRSC04393	2.84e6	2.63e6
CG3594	DRSC21959	3.44e6	3.95e6
ms(2)34Fe (male sterile (2) 34Fe)	DRSC01905	3.51e6	4.00e6
Ptpmeg (Protein tyrosine phosphatase Meg)	DRSC08684	3.56e6	4.11e6
CG8944	DRSC20128	3.49e6	3.92e6
CG8944	DRSC21342	3.83e6	4.38e6
CG15155	DRSC02456	3.45e6	3.87e6
aay (astray)	DRSC11320	3.49e6	3.89e6
RagA-B (Ras-related GTP binding A/B)	DRSC14450	3.36e6	3.81e6
CG7772	DRSC20056	3.74e6	4.25e6
ND-B17 (NADH dehydrogenase (ubiquinone) B17 subunit)	DRSC01981	3.60e6	4.08e6
CG17300	DRSC10260	3.70e6	4.04e6
vex (vexed)	DRSC19481	3.65e6	4.02e6
vex (vexed)	DRSC19651	3.69e6	4.11e6
vex (vexed)	DRSC21843	3.51e6	4.11e6
CG32679	DRSC17644	3.52e6	4.00e6
nero	DRSC15432	3.41e6	3.91e6
Rfk (Riboflavin kinase)	DRSC15454	3.35e6	3.86e6
CG18586	DRSC10325	3.42e6	3.91e6
CG31373	DRSC16052	3.65e6	4.07e6
CG31296	DRSC13092	3.47e6	3.94e6
Arl4 (ADP ribosylation factor-like 4)	DRSC17156	3.58e6	4.08e6
Gr77a (Gustatory receptor 77a)	DRSC11446	3.66e6	4.36e6
CG31710	DRSC01089	3.69e6	4.22e6
CG31710	DRSC22863	3.40e6	4.02e6
Tg (Transglutaminase)	DRSC03047	3.63e6	4.11e6
tn (thin)	DRSC05768	3.47e6	4.01e6
tn (thin)	DRSC06532	3.58e6	4.25e6
CG3500	DRSC04379	3.59e6	4.05e6
Ucp4B (Uncoupling protein 4B)	DRSC02665	3.65e6	4.27e6
wisp (wispy)	DRSC19703	3.53e6	4.18e6
wisp (wispy)	DRSC23092	3.46e6	3.83e6
CG6321	DRSC10623	3.82e6	4.28e6
Unc-115b + p24-2 + Unc-115a	DRSC16502	3.48e6	3.98e6
Ehbp1 (Eps15 homology domain containing protein-binding protein 1)	DRSC06561	3.41e6	3.91e6
CG8405	DRSC05599	3.57e6	4.03e6
CG8405	DRSC07166	3.83e6	4.33e6
twe (twine)	DRSC03628	3.51e6	3.89e6
Pex6 + Hao	DRSC06097	3.44e6	3.81e6
Pex6 + Hao	DRSC06704	3.43e6	3.80e6
CG30109	DRSC05675	3.57e6	4.13e6
Dif (Dorsal-related immunity factor)	DRSC03316	3.65e6	4.10e6
CR32028 (retired record)	DRSC22959	3.57e6	4.04e6
CG7231	DRSC03034	3.69e6	4.26e6
Nubp1 (NUBP iron-sulfur cluster assembly factor 1)	DRSC02639	3.42e6	3.81e6
CG3793	DRSC01982	3.61e6	4.02e6
Dbx	DRSC08270	3.51e6	3.95e6
Dbx	DRSC08271	3.56e6	4.04e6
Dbx	DRSC08394	3.50e6	3.91e6
CG8679	DRSC03109	3.53e6	4.07e6
Cyp4p2 (Cytochrome P450 4p2)	DRSC07373	3.45e6	3.94e6
Ubqn (Ubiquilin)	DRSC19581	3.33e6	3.69e6
CG9449	DRSC11073	3.51e6	3.94e6
CG1690	DRSC06636	3.32e6	3.80e6
RecQ5 (RecQ5 helicase)	DRSC11266	3.60e6	4.11e6
Rab10	DRSC20572	3.83e6	4.27e6
CG30110	DRSC05686	3.46e6	4.04e6
CG14414	DRSC19599	3.53e6	3.95e6
Bap60 (Brahma associated protein 60kD)	DRSC19337	3.29e6	3.41e6
Kul (Kuzbanian-like)	DRSC15404	3.45e6	3.92e6
FMRFa (FMRFamide)	DRSC07428	3.53e6	4.08e6
ng1 (new glue 1)	DRSC18802	3.51e6	4.01e6
Mcm6 (Minichromosome maintenance 6)	DRSC18680	3.66e6	4.14e6
Ubr1 (Ubr1 ubiquitin ligase)	DRSC20148	4.06e6	4.90e6
CG32669	DRSC18864	3.38e6	3.83e6
Isha (Insulator su(Hw) mRNA adaptor)	DRSC04456	3.57e6	3.81e6
CG9467	DRSC16498	3.51e6	3.98e6
CheA84a (Chemosensory protein A 84a)	DRSC12669	3.54e6	4.01e6
CG13581	DRSC04216	3.59e6	4.10e6
TP53INP (Tumor protein p53 inducible nuclear protein)	DRSC08178	3.51e6	3.95e6
TP53INP (Tumor protein p53 inducible nuclear protein)	DRSC22552	3.64e6	4.14e6
CG8032	DRSC16365	3.54e6	4.00e6
REPTOR (Repressed by TOR)	DRSC14626	3.47e6	3.91e6
CG13474	DRSC10018	3.38e6	3.88e6
Socs16D (Suppressor of Cytokine Signaling at 16D)	DRSC20087	3.44e6	3.91e6
Socs16D (Suppressor of Cytokine Signaling at 16D)	DRSC23165	3.51e6	4.01e6

A run of entries taken from the entries so far, as a working copy:
predicted target	dsRNA	mean viability with MMS	viability with MMS, replicate 1
Rfk (Riboflavin kinase)	DRSC15454	3.35e6	3.86e6
CG18586	DRSC10325	3.42e6	3.91e6
CG31373	DRSC16052	3.65e6	4.07e6
CG31296	DRSC13092	3.47e6	3.94e6
Arl4 (ADP ribosylation factor-like 4)	DRSC17156	3.58e6	4.08e6
Gr77a (Gustatory receptor 77a)	DRSC11446	3.66e6	4.36e6
CG31710	DRSC01089	3.69e6	4.22e6
CG31710	DRSC22863	3.40e6	4.02e6
Tg (Transglutaminase)	DRSC03047	3.63e6	4.11e6
tn (thin)	DRSC05768	3.47e6	4.01e6
tn (thin)	DRSC06532	3.58e6	4.25e6
CG3500	DRSC04379	3.59e6	4.05e6
Ucp4B (Uncoupling protein 4B)	DRSC02665	3.65e6	4.27e6
wisp (wispy)	DRSC19703	3.53e6	4.18e6
